Results are given in words; binding and its absence hold for the method and conditions named. In cells and extracts the contact can be indirect. Some binding calls cover weakened binding; strength is not graded here. For some of these results: Where a sequence is shown, tags or fusion partners need not be part of it.

Experiment [1] addresses endogenously expressed YAP (human (endogenous in 7404 and PVTT)) (UniProt P46937). Briefly: co-IP; endogenously expressed proteins in 7404 and PVTT cells.
A further experiment has as its target GST-YAP fusion protein (UniProt P46937). Nature of the experiment: pull-down; GST pull-down using 7404 cell lysate and GST-YAP fusion protein; only the target purified.
The next experiment concerns the target Flag-YAP (UniProt P46937). Nature of the experiment: co-IP; immunoprecipitation of ectopically expressed Flag-YAP (or YAP del 174-203aa) and myc-NUP37 in 7404 cells.
The target in experiment [2] is YAP mutant (del 174-203aa) (UniProt P46937). Described as above.

B1: endogenous NUP37 (protein, UniProt Q8NFH4 1-326)
chain: MKQDASRNAAYTVDCEDYVHVVEFNPFENGDSGNLIAYGGNNYVVIGTCTFQEEEADVEGIQYKTLRTFHHGVRVDGIAWSPETRLDSLPPVIKFCTSAADMKIRLFTSDLQDKNEYKVLEGHTDFINGLVFDPKEGQEIASVSDDHTCRIWNLEGVQTAHFVLHSPGMSVCWHPEETFKLMVAEKNGTIRFYDLLAQQAILSLESEQVPLMSAHWCLKNTFKVGAVAGNDWLIWDITRSSYPQNKRPVHMDRACLFRWSTISENLFATTGYPGKMASQFQIHHLGHPQPILMGSVAVGSGLSWHRTLPLCVIGGDHKLLFWVTEV
Take B1: the binding entry (in experiment [1]; with GST-YAP fusion protein) was “binds” in each case.

B2: myc-tagged NUP37 (protein, UniProt Q8NFH4 1-326)
chain: B1 chain
For the molecule B2, the binding result is recorded as “binds” in the experiment with Flag-YAP and “no binding” in experiment [2].

The record behind these values is article PMC5716709.
